From patent US20210317535A1, “METHODS OF D[…] CONSISTING OF RADIATION THERAPY AND/OR ALKYLATING CHEMOTHERAPY IN PATIENTS SUFFERING FROM CANCER” (THE REGENTS OF THE UNIVERSITY OF MICHIGAN, priority 2018, published 2021)
At least one structure is not confirmed: it was looked up by name or label, or the drawing left a doubt.

Tested on: orthotopic GBM PDXs
Experiment: Orthotopic GBM patient-derived xenograft (PDX) treatment response: survival with vs without treatment
Assay type: in vivo, mice

Structure (SMILES): Cn1nnc2c(C(N)=O)ncn2c1=O [temozolomide]
- Treatment benefit (ratio of survival time with treatment relative to survival time without treatment) (31 orthotopic GBM PDXs, ranking of RT, TMZ and RT+TMZ, FIG. 5): followed by temozolomide, and then RT
- Relationship between TMZ dose and survival benefit (TMZ alone or TMZ+RT cohorts, varied TMZ doses): no relationship was seen
